Our source for the binding values is paper PMC4467191.

Holding throughout (assay): native gel or EMSA; Blue Native PAGE (supplementary Fig. S2F); oligomer bands marked by open arrowheads, higher-order oligomers or aggregates by solid arrowheads; sample and conditions not told in the text shown
The target in assay [1] is human Pex11pβ (wild type) (human) (UniProt O96011).
Assay [2] has as its target human Pex11pβ-φ (L58E, L61E, A65E) (human) (UniProt O96011).
Assay [3] concerns the target human Pex11pβ-P (L59P, D66P) (human) (UniProt O96011).
A further assay addresses human Pex11pα (human) (UniProt O75192).
A further assay concerns the target human Pex11pγ (human) (UniProt Q96HA9).

No constants are given. Whether binding was seen depends on the method and setting. Some entries that bind do so weakly or less than the wild type.

B1: human Pex11pβ (wild type) (protein, UniProt O96011 1-259)
chain: MDAWVRFSAQSQARERLCRAAQYACSLLGHALQRHGASPELQKQIRQLESHLSLGRKLLRLGNSADALESAKRAVHLSDVVLRFCITVSHLNRALYFACDNVLWAGKSGLAPRVDQEKWAQRSFRYYLFSLIMNLSRDAYEIRLLMEQESSACSRRLKGSGGGVPGGSETGGLGGPGTPGGGLPQLALKLRLQVLLLARVLRGHPPLLLDVVRNACDLFIPLDKLGLWRCGPGIVGLCGLVSSILSILTLIYPWLRLKP
With B1, the binding entry in assay [1] is “binds”.

B2: human Pex11pβ-φ (L58E, L61E, A65E) (protein, UniProt O96011 1-259)
chain: MDAWVRFSAQSQARERLCRAAQYACSLLGHALQRHGASPELQKQIRQLESHLSLGRKELREGNSEDALESAKRAVHLSDVVLRFCITVSHLNRALYFACDNVLWAGKSGLAPRVDQEKWAQRSFRYYLFSLIMNLSRDAYEIRLLMEQESSACSRRLKGSGGGVPGGSETGGLGGPGTPGGGLPQLALKLRLQVLLLARVLRGHPPLLLDVVRNACDLFIPLDKLGLWRCGPGIVGLCGLVSSILSILTLIYPWLRLKP
With B2, the binding entry in assay [2] is reported as “binds”.

B3: human Pex11pβ-P (L59P, D66P) (protein, UniProt O96011 1-259)
chain: MDAWVRFSAQSQARERLCRAAQYACSLLGHALQRHGASPELQKQIRQLESHLSLGRKLPRLGNSAPALESAKRAVHLSDVVLRFCITVSHLNRALYFACDNVLWAGKSGLAPRVDQEKWAQRSFRYYLFSLIMNLSRDAYEIRLLMEQESSACSRRLKGSGGGVPGGSETGGLGGPGTPGGGLPQLALKLRLQVLLLARVLRGHPPLLLDVVRNACDLFIPLDKLGLWRCGPGIVGLCGLVSSILSILTLIYPWLRLKP
B3: the binding entry in assay [3] is reported as “binds”.

B4: human Pex11pα (protein, UniProt O75192 1-247)
chain: MDAFTRFTNQTQGRDRLFRATQYTCMLLRYLLEPKAGKEKVVMKLKKLESSVSTGRKWFRLGNVVHAIQATEQSIHATDLVPRLCLTLANLNRVIYFICDTILWVRSVGLTSGINKEKWRTRAAHHYYYSLLLSLVRDLYEISLQMKRVTCDRAKKEKSASQDPLWFSVAEEETEWLQSFLLLLFRSLKQHPPLLLDTVKNLCDILNPLDQLGIYKSNPGIIGLGGLVSSIAGMITVAYPQMKLKTR
Take B4: the binding result with human Pex11pα (human) is recorded as “binds”.

B5: human Pex11pγ (protein, UniProt Q96HA9 1-241)
chain: MASLSGLASALESYRGRDRLIRVLGYCCQLVGGVLVEQCPARSEVGTRLLVVSTQLSHCRTILRLFDDLAMFVYTKQYGLGAQEEDAFVRCVSVLGNLADQLYYPCEHVAWAADARVLHVDSSRWWTLSTTLWALSLLLGVARSLWMLLKLRQRLRSPTAPFTSPLPRGKRRAMEAQMQSEALSLLSNLADLANAVHWLPRGVLWAGRFPPWLVGLMGTISSILSMYQAARAGGQAEATTP
For the molecule B5, the binding result with human Pex11pγ (human) is on record as “binds”.
